In all, about 320,000 compounds went through this assay and about 2,100 (0.66%) were called active. The shares of active, inactive and inconclusive entries below differ from those in the screen. Calls follow the shape of the dose curve; as a rule, active = well fitted inhibition curve with a large enough effect in the signal ratio, with a control signal flat (not every such curve was filed as active); inconclusive = small, poorly fitted or top-dose-only effect, or effect the other way, or a change in a side signal; inactive = flat fitted curve, though single readings scatter; the % refers to the signal ratio. A potency beside an inconclusive call is a rough fit, not a confirmed value.
Assay: qHTS Assay for Lipid Storage Modulators in Drosophila S3 Cells
Details: BODIPY lipid droplet fluorescence, 18-24 h, cells fed with added oleic acid; lipid storage change, negative = inhibition: at 46.1 µM (top of the series) unless noted
Outline: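 Drosophila S3 cells got compounds at several concentrations plus oleic acid (400 uM solution). Laser-scanning cytometry with 488 nm excitation read lipid droplets at 500-530 nm and cells at 575-640 nm. Percent activity was relative to 20 uM Triacsin C.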
% is scaled to controls: 0 for no effect and ±100 for the full control effect; potency is read from the fitted curve at half-maximal effect.

Row | Compound | lipid storage change, negative = inhibition | Potency
1 | CC(=O)C1=C(O)C(=O)N(Cc2ccccc2)C1c1cccc([N+](=O)[O-])c1 (stereo unspecified) | inconclusive: 3.73% | 
2 | CCC(NC(=O)c1cc(COc2ccc(Cl)cc2OC)on1)c1ccncc1 (stereo unspecified) | inconclusive: 21.1% | 
3 | Cc1ccc(C)c(NC(=O)CSc2nnc(Cc3cccn3C)n2-c2ccc(F)cc2)c1 | inconclusive: 24.2% | 
4 | C=C1c2cc(OC)ccc2NC(=O)N1CC | inconclusive: 34.9% | 
5 | Cc1ccc(SCCC(=O)NCc2ccco2)cc1 | inconclusive: -39.4% | 
6 | O=C(Cc1ccc(Cl)cc1)Nc1ncc([N+](=O)[O-])s1 | inconclusive: -15% | 
7 | OC(COCc1cccs1)CN1CCN(c2ccccn2)CC1 (stereo unspecified) | inconclusive: 11.8% | 
8 | COc1cccc(C(=O)Nc2nc3ccccc3[nH]2)c1 | inactive | 
9 | C/C(=N\OCC(=O)Nn1c(=O)[nH]c2ccccc2c1=O)c1ccccc1 | inconclusive: 25.3% | 
10 | CC(=O)NCCC(=O)Nc1cc(S(=O)(=O)N2CCOCC2)ccc1N1CCOCC1 | inconclusive: -21.8% | 
11 | CCOC(=O)C1CCN(C(=O)c2ccc3c(c2)NC(=O)/C(=C/c2ccccc2)S3)CC1 |  | inconclusive: 29.1 µM [falling, single point]
12 | O=C(CNC(=O)c1ccccc1C(=O)O)c1ccccc1 | inconclusive: 14% | 
13 | COc1ccc(NC(=O)c2ccccc2N(Cc2ccccc2)S(C)(=O)=O)cc1 | inconclusive: -20.3% | 
14 | Nc1nc(-c2ccc(Cl)cc2)nn1C(=O)c1ccco1 |  | inconclusive: 0.0291 µM [rising, full curve, poor fit]
15 | CCNC(=O)c1ccc(CSc2nc3ccccc3s2)cc1 |  | inconclusive: 0.58 µM [falling, single point]
16 | Cc1nn(-c2nc3ccccc3[nH]2)c(=O)c2ccccc12 | inconclusive: 33.1% | 
17 | CCCNC(=O)COc1cccc(C(=O)NCc2ccccc2)c1 | inconclusive: -8.7% | 
18 | C[C@]12C(=O)N(c3cccc(F)c3)C(=O)N1[C@@H]1c3ccccc3OC[C@@H]1[C@H]2c1ccccc1 | inconclusive: 64.6% | 
19 | C/C(N)=C(/C#N)C(=O)COC(=O)C1CSC2(c3ccc(F)cc3)CCC(=O)N12 (stereo unspecified) | inconclusive: -100% | 
20 | Cc1ccc(Sc2ncccc2C(=O)O)cc1 | inconclusive: 23% | 
21 | COc1cc(OC)c(OC)cc1CN1CCSCC1 | inconclusive: 38.3% | 
22 | O=C(c1cccc(-c2nnc(-c3ccccc3)o2)c1)N1CCCCC1 |  | inconclusive: 0.103 µM [activator, full curve, poor fit]
23 | Oc1ccc2ccc3[nH]cnc3c2c1 | inconclusive: 24.1% | 
24 | COc1ccc(OC(=O)c2cnc3n(c2=O)CCS3)cc1 | inconclusive: -16% | 
25 | CC(C)(C)c1ccc(OCCNCc2ccccc2)cc1 | inconclusive: -12.1% | 
26 | Cc1cccc(N(C)S(=O)(=O)c2ccc(-c3cc(C)no3)s2)c1 |  | inconclusive: 0.731 µM [falling, single point]
27 | OCCOCCN1CCN(C2=Nc3ccccc3Sc3ccccc32)CC1 | inconclusive: -27.4% | inconclusive: 5.17 µM [activator, single point]

Row | Compound | lipid storage change, negative = inhibition | Potency
28 | COc1ccc(/C=N/NC(=O)c2ccc3nc[nH]c3c2)c(OC)c1 | inconclusive: -33.2% | 
29 | CC/C(=C1/C(=O)CC(C)(C)C(C(=O)OC)C1=O)N1CCCC1 (stereo unspecified) | inconclusive: -4.84% | 
30 | O=C(CCc1ccccc1)NCc1ccncc1 |  | inconclusive: 29.1 µM [activator, single point]
31 | O=C(Cc1csc(N2CCOCC2)n1)N/N=C/c1cccc(O)c1 | inconclusive: -139% | 
32 | Cc1ccc(S(=O)(=O)N2CCOCC2)cc1NC(=O)CN1CCC(Cc2ccccc2)CC1 | inconclusive: -30% | 
33 | O=C(CCC(=O)Nc1cccc([N+](=O)[O-])c1)NCc1ccccc1 | inconclusive: -27.2% | 
34 | O=C1c2ccccc2C(=O)N1CC(O)CNc1ccc(Br)cc1 (stereo unspecified) | inconclusive: -7.75% | 
35 | COc1cc2cc(/C=C/C(=O)c3ccco3)c(Cl)nc2cc1OC | inconclusive: 124% | 
36 | Cc1cc(OC(C)C(=O)NCCN2CCOCC2)c2c(C)c(C)c(=O)oc2c1 (stereo unspecified) | inconclusive: -26.2% | 
37 | C=CCNC(=O)C1CCN(S(=O)(=O)CC)CC1 | inconclusive: 29.2% | 
38 | O=C1c2ccccc2NC2(CCCCC2)N1c1ccc(O)cc1 |  | inconclusive: 4.61 µM [falling, single point]
39 | COc1ccc(-c2ocnc2C(=O)N2CCN(C(c3ccccc3)c3ccccc3)CC2)cc1 | inconclusive: 0.901% | 
40 | COc1cc(C(=O)Nc2cccc(S(=O)(=O)N3CCCC3)c2)c([N+](=O)[O-])cc1OC | inconclusive: -6.74% | 
41 | c1ccc(Sc2nc(N3CCCCC3)nc(N3CCCCC3)n2)nc1 | inconclusive: -5.87% | 
42 | CCC(C(=O)OCCOCCN(CC)CC)c1ccccc1 (stereo unspecified) | inconclusive: -35.6% | 
43 | Cc1cc(OCC(=O)O/N=C(\N)c2ccccc2)cc(C)c1Cl | inconclusive: -25.9% | 
44 | CC1CC(C)CN(C(=O)c2cccc(S(=O)(=O)Nc3cc(C(F)(F)F)ccc3Cl)c2)C1 (stereo unspecified) | inconclusive: -5.34% | 
45 | N/C(=N\OC(=O)N1CCOCC1)c1ccc(Cl)cc1 | inconclusive: -14.3% | 
46 | CCOC(=O)Nc1sc(NS(=O)(=O)c2ccccc2)nc1C | inconclusive: -1.69% | 
47 | Cc1cccc2sc(NNC(=O)c3ccc4c(c3)OCCO4)nc12 | inconclusive: 0.232% | 
48 | Cc1cccc(S(=O)(=O)NCCC(=O)OCC(=O)Nc2ccc(C#N)cc2)c1 |  | inconclusive: 29.1 µM [activator, single point]
49 | C/C(=N\NC(=O)CC#N)c1cc2ccc(O)cc2oc1=O | inconclusive: -38.8% [cytotoxic] [at 0.369 µM] | 
50 | Cc1ccc(NC(=O)Nc2ccon2)cc1 | inconclusive: 205% | 
51 | O=C(CCCOc1ccc(Br)cc1)NNC(=O)c1ccncc1 | inconclusive | 
52 | O=C(NCc1cccnc1)NC(C(F)(F)F)C(F)(F)F | inconclusive: -39.2% | 
53 | Cc1ccc(S(=O)(=O)N2CCN(C(=O)COC(=O)/C=C/c3ccccc3F)CC2)c(C)c1 |  | inconclusive: 0.231 µM [activator, full curve]
54 | O=S(=O)(O)c1nnc2sc3ccccc3n12 | inconclusive: 5.59% | 

Reprinted at random: three compounds from above.
Row | Compound | lipid storage change, negative = inhibition | Potency
20 | Cc1ccc(Sc2ncccc2C(=O)O)cc1 | inconclusive: 23% | 
38 | O=C1c2ccccc2NC2(CCCCC2)N1c1ccc(O)cc1 |  | inconclusive: 4.61 µM [falling, single point]
10 | CC(=O)NCCC(=O)Nc1cc(S(=O)(=O)N2CCOCC2)ccc1N1CCOCC1 | inconclusive: -21.8% | 

Additional compounds follow.

Row | Compound | lipid storage change, negative = inhibition | Potency
55 | O=C(CN(c1ccc(Br)cc1)S(=O)(=O)c1ccc(Cl)c([N+](=O)[O-])c1)NCCc1ccccc1 | inconclusive: -66.3% | 
56 | Cc1cc(S(=O)(=O)N2CCC3(CC2)OCCN3S(=O)(=O)c2cccs2)ccc1F | inconclusive: 19.5% | 
57 | COc1ccc(S(=O)(=O)N2CCC(C(=O)NCc3cccc(OC)c3)CC2)cc1 | inactive | 
58 | O=C(NCC(=O)N(c1ccc(F)cc1)C(C(=O)NC1CCCC1)c1ccncc1)c1ccco1 (stereo unspecified) | inconclusive: 141% | 
59 | COc1ccc2c(c1)C(=O)N(c1ccccc1)C(=O)C2 |  | active: 23.1 µM
60 | O=C(CN1C(=O)NC2(CCCC2)C1=O)Nc1nc(-c2ccc(F)c(F)c2)cs1 | inconclusive: 3.88% | 
61 | c1ccc(-c2nn3c(C4CCCCC4)nnc3s2)nc1 | inconclusive: 31.5% [activator] | 
62 | Cc1ccc(S(=O)(=O)Cn2nnnc2C(CC(C)C)N2CCN(C(=O)c3ccco3)CC2)cc1 (stereo unspecified) | inconclusive: 14.8% | 
63 | Cc1cc(C)nc(SCc2cc(=O)c(OC(=O)c3ccc(S(=O)(=O)N4CCCC4)cc3)co2)n1 | inconclusive: 12.2% | 
64 | C=CCNC(=O)CSc1nnc(-c2ccccn2)n1Cc1ccccc1 | inconclusive: -1.45% [at 9.22 µM] | 
65 | Cc1ccc(-c2nn(-c3ccccc3)cc2/C=C/C(=O)Nc2cccc(S(N)(=O)=O)c2)cc1 | inconclusive: -10% | 
66 | OC(CNCCCN1CCCCC1)COc1ccccc1 (stereo unspecified) | inconclusive: -1.88% | 
67 | NS(=O)(=O)c1ccc(CCNC(=O)CNC(=O)c2ccccc2F)cc1 | inconclusive: -30.8% | 
68 | CC1CCN(CCc2nc3cc(NC(=O)COc4ccc([N+](=O)[O-])cc4)ccc3n2C)CC1 |  | inconclusive: 20.6 µM [activator, partial curve]
69 | Cc1ccc(Cn2nnnc2CN2CCC(O)(c3cccnc3)CC2)cc1 | inactive | 
70 | O=c1c2ccccc2nc(-c2ccco2)n1/N=C/c1ccco1 |  | inconclusive: 5.8 µM [activator, partial curve, poor fit]
71 | Cc1ccc(NC(=O)c2ccc(-c3nn(C)c(=O)c4ccccc34)cc2)cc1 | inconclusive: -19.2% | 
72 | CC(C)(C)OC(=O)NCCCCCNC(=O)c1[nH]cnc1C(=O)N[C@@H](Cc1ccccc1)C(=O)OCc1ccccc1 | inconclusive: -41.3% | 
73 | COC(=O)c1ccc(COc2ccccc2[N+](=O)[O-])o1 |  | inconclusive: 1.64 µM [activator, partial curve, poor fit]
74 | COc1cccc(C(=O)COc2cccc(NC(=O)c3ccco3)c2)c1 | inactive | 
75 | CCN(CC(=O)NCc1cccs1)S(=O)(=O)c1ccc(C(C)C)cc1 | inconclusive: 20.2% | 
76 | CCN(CC)S(=O)(=O)c1ccc(N2CC(C(=O)NCc3ccc4c(c3)OCO4)CC2=O)cc1 (stereo unspecified) |  | inconclusive: 29.1 µM [falling, single point]
77 | CC(C)CNC(=S)N(CCN(C)C)Cc1cc2cc3c(cc2[nH]c1=O)OCCO3 | inconclusive: 22.4% | 
78 | CCN(CC(=O)NCc1cccs1)C(=O)c1ccc(S(=O)(=O)Nc2ccccc2C)cc1 | inconclusive: 19.9% | 
79 | Cc1ccc(Cn2ccc(NC(=O)c3cc(-c4ccccc4)on3)n2)cc1 |  | inconclusive: 8.2 µM [activator, partial curve]
80 | CC(=O)C1=C(c2ccccc2)NC(=O)NC1c1ccccc1OCC(=O)Nc1ccccc1 (stereo unspecified) |  | inconclusive: 6.51 µM [rising, single point]

Source: PubChem BioAssay AID2685 (National Center for Advancing Translational Sciences (NCATS), 2010)
